Source: PubChem BioAssay AID652259 (Drosophila RNAi Screening Center, 2013)
Assay: 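Identify new Wingless signalling regulators in fly cells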 (primary screen). Cell system: Drosophila clone 8 imaginal disc epithelial cells. Reagent: long dsRNA against Drosophila genes. Treatment: pathway stimulated by co-transfected Wingless expression plasmid. Detection: 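Dual luciferase reads per well after Wingless plasmid stimulation: reporter firefly light and Renilla control light; activity is firefly divided by Renilla, a ratio not deposited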. Direction: firefly reporter light: higher = more Wg reporter light, before normalisation; Renilla control light: higher = more transfected or surviving cells. Rule for the call: 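Strong candidates differ from their plate mean by at least two out of four per-plate statistical tests; weak candidates meet just one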. Calls: active = candidate regulator (raises or lowers reporter); inactive = not a candidate.
The deposit covers about 22,000 reagents; this is an unselected part of those with a known target gene and a result. In the full data, 233 (1.1%) got an active call. 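Light values are raw, unnormalised plate reads; the ratio scores behind the reporter calls were not deposited.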 Reagents against one gene are numbered here. The record does not give: the amount of reagent, the time to read-out, the dose of the treatment.

CG11790 | firefly reporter light, replicate 1: 5059; firefly reporter light, replicate 2: 10217; Renilla control light, replicate 1: 1072; Renilla control light, replicate 2: 1739; activity call: inactive
Fer2LCH | firefly reporter light, replicate 1: 6534; Renilla control light, replicate 1: 1936; activity call: inactive
CG7017 | firefly reporter light, replicate 1: 16752; Renilla control light, replicate 1: 2265; activity call: inactive
CG13954 | firefly reporter light, replicate 1: 1974; firefly reporter light, replicate 2: 6903; Renilla control light, replicate 1: 490; Renilla control light, replicate 2: 1800; activity call: inactive
ND-MLRQ | firefly reporter light, replicate 1: 3815; Renilla control light, replicate 1: 1817; activity call: inactive
CG17109 | firefly reporter light, replicate 1: 26434; Renilla control light, replicate 1: 20677; activity call: inactive
CG12868 | firefly reporter light, replicate 1: 7312; Renilla control light, replicate 1: 2752; activity call: inactive
CG9757 #1 | firefly reporter light, replicate 1: 24105; Renilla control light, replicate 1: 5360; activity call: inactive
CG9757 #2 | firefly reporter light, replicate 1: 8.71e5; firefly reporter light, replicate 2: 8.68e5; Renilla control light, replicate 1: 4.15e5; Renilla control light, replicate 2: 4.21e5; activity call: inactive
Gr58b | firefly reporter light, replicate 1: 2458; firefly reporter light, replicate 2: 4412; Renilla control light, replicate 1: 739; Renilla control light, replicate 2: 1824; activity call: inactive
csw | firefly reporter light, replicate 1: 20272; Renilla control light, replicate 1: 10500; activity call: inactive
RpS26 | firefly reporter light, replicate 1: 2001; firefly reporter light, replicate 2: 3312; Renilla control light, replicate 1: 845; Renilla control light, replicate 2: 1671; activity call: inactive
CG33557 | firefly reporter light, replicate 1: 17122; Renilla control light, replicate 1: 8758; activity call: inactive

Only “Renilla control light, replicate 1”, for 3 of the entries above:
CG9757 #2	4.15e5
Gr58b	739
csw	10500

Additional results:
CG14395 | firefly reporter light, replicate 1: 13648; Renilla control light, replicate 1: 3131; activity call: inactive
Tdg #1 | firefly reporter light, replicate 1: 4436; Renilla control light, replicate 1: 1739; activity call: inactive
Tdg #2 | firefly reporter light, replicate 1: 21592; Renilla control light, replicate 1: 11243; activity call: inactive
Pex1 | firefly reporter light, replicate 1: 4787; Renilla control light, replicate 1: 2021; activity call: inactive
nanos | firefly reporter light, replicate 1: 18588; Renilla control light, replicate 1: 2650; activity call: inactive
larp #1 | firefly reporter light, replicate 1: 9984; Renilla control light, replicate 1: 3632; activity call: inactive
larp #2 | firefly reporter light, replicate 1: 5674; Renilla control light, replicate 1: 2928; activity call: inactive
larp #3 | firefly reporter light, replicate 1: 4.95e5; firefly reporter light, replicate 2: 5.73e5; Renilla control light, replicate 1: 1.89e5; Renilla control light, replicate 2: 2.23e5; activity call: inactive
Cyp316a1 | firefly reporter light, replicate 1: 1511; firefly reporter light, replicate 2: 7878; Renilla control light, replicate 1: 1290; Renilla control light, replicate 2: 3045; activity call: inactive
Nufip | firefly reporter light, replicate 1: 5265; Renilla control light, replicate 1: 1939; activity call: inactive
Fer2 | firefly reporter light, replicate 1: 16096; Renilla control light, replicate 1: 2528; activity call: inactive
CG42553 | firefly reporter light, replicate 1: 5772; Renilla control light, replicate 1: 2329; activity call: inactive
